Data: PubChem BioAssay AID256 (DTP/NCI, 2004)
The list is a part of this screen's results and no random one: it is rich in T/C values a quarter to a half above the control, in often repeated tests (any T/C) and in doses without a T/C. Other doses and runs of a compound stand elsewhere. T/C: endpoint of the treated group in % of that of the vehicle group. Some entries give survivors of the animals treated and no T/C: the source files T/C as zero there, which appears to mark a toxic dose or a test without result, not a measured value. Some survivor counts are full or nearly so, which does not show that the dose was tolerated: survival well below the control is almost never listed, so the zero probably covers shortened survival too. Counts of survivors are from the toxicity check (mostly the fifth day) where no day follows; animals may have died later. Schedules are NCI's codes, taken here to give the interval after Q, in days (D) or hours (H), and the number of doses after X. Some entries were tested several times; the results are listed from low to high. Where survival is the endpoint, this PubChem deposit counts one and a half times the control or more as active, and values a quarter to a half above the control carry no call in these data; other NCI protocols may use other cut-offs. Some T/C values are followed by the survivors on the day toxicity was checked, most often the fifth; without a count, all were alive then.

Tested on: CD2F1 mice, L1210 leukemia ip, survival T/C
Assay: NCI In Vivo Anticancer Drug Screen. Data for tumor model L1210 Leukemia (intraperitoneal) in CD2F1 (CDF1) mice
Conditions: higher T/C = longer survival
Procedure, shortened: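 Compound-dosed mice with transplantable tumor versus matched vehicle controls; endpoint ratio T/C reported.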

[1] = T/C endpoint: mean survival time, dose: 400.0 mg/kg/injection, schedule: Q04DX002 (ip), vehicle: saline with Tween-80

For `Cc1nc(N)[nH]c(=O)c1CCS`, the survivor count (T/C endpoint: mean survival time, dose: 400.0 mg/kg/injection, schedule: Q01DX001 (ip), vehicle: saline) was 3 of 6.

`O=CNc1cc2ccccc2c2ccc3ccccc3c12` was tested, and the survivor count (T/C endpoint: mean survival time, dose: 400.0 mg/kg/injection, schedule: Q04DX003 (ip), vehicle: saline with Tween-80) was 5 of 6.

In the case of `CCOC(=O)C1C2CCC(O2)C1C#N` (stereo not given), the survivor count (T/C endpoint: mean survival time, dose: 100.0 mg/kg/injection, schedule: Q04DX002 (ip), vehicle: saline with Tween-80) was 1 of 3, the survivor count (T/C endpoint: mean survival time, dose: 200.0 mg/kg/injection, schedule: Q04DX002 (ip), vehicle: saline with Tween-80) was 1 of 3 and the survivor count [1] was 0 of 3.

In the case of `NC(Cc1cc([N+](=O)[O-])ccc1CN(CCCl)CCCl)C(=O)O` (stereo not given), the T/C (T/C endpoint: mean survival time, dose: 1.0 mg/kg/injection, schedule: Q01DX009 (ip), vehicle: Klucel (hydroxypropylcellulose) (HPC)) was 133 % of control [5 of 6 alive], the T/C (T/C endpoint: mean survival time, dose: 2.0 mg/kg/injection, schedule: Q01DX009 (ip), vehicle: Klucel (hydroxypropylcellulose) (HPC)) was 139 % of control and the T/C (T/C endpoint: median survival time, dose: 3.12 mg/kg/injection, schedule: Q01DX001 (ip), vehicle: Klucel (hydroxypropylcellulose) (HPC)) was 146 % of control. The survivor count (T/C endpoint: median survival time, dose: 3.75 mg/kg/injection, schedule: Q04DX003 (ip), vehicle: Klucel (hydroxypropylcellulose) (HPC)) was 4 of 6, the survivor count (T/C endpoint: median survival time, dose: 6.25 mg/kg/injection, schedule: Q01DX001 (ip), vehicle: Klucel (hydroxypropylcellulose) (HPC)) was 4 of 6 and the survivor count (T/C endpoint: median survival time, dose: 7.5 mg/kg/injection, schedule: Q04DX003 (ip), vehicle: Klucel (hydroxypropylcellulose) (HPC)) was 4 of 6. For the same molecule, the survivor count (T/C endpoint: median survival time, dose: 12.5 mg/kg/injection, schedule: Q01DX001 (ip), vehicle: Klucel (hydroxypropylcellulose) (HPC)) was 2 of 6, the survivor count (T/C endpoint: median survival time, dose: 15.0 mg/kg/injection, schedule: Q04DX003 (ip), vehicle: Klucel (hydroxypropylcellulose) (HPC)) was 1 of 6 and the survivor count (T/C endpoint: median survival time, dose: 25.0 mg/kg/injection, schedule: Q01DX001 (ip), vehicle: Klucel (hydroxypropylcellulose) (HPC)) was 1 of 6.

With `COC(=O)C(N)CSCc1ccccc1` (stereo not given) the survivor count (T/C endpoint: mean survival time, dose: 200.0 mg/kg/injection, schedule: Q01DX001 (ip), vehicle: saline) was 3 of 6.

`NN(C(=O)c1ccccc1)c1ccccc1` was tested, and the survivor count (T/C endpoint: mean survival time, dose: 200.0 mg/kg/injection, schedule: Q01DX009 (ip), vehicle: saline with Tween-80) was 1 of 6 and the survivor count (T/C endpoint: mean survival time, dose: 400.0 mg/kg/injection, schedule: Q01DX009 (ip), vehicle: saline with Tween-80) was 0 of 6.

`CC(CCOc1ccc(Cl)cc1Cl)C(=O)O` (stereo not given) was tested, and the survivor count [1] was 0 of 3.

For `C[n+]1c(-c2cccc3ccccc23)c2cc(N)ccc2c2ccccc21`, the survivor count (T/C endpoint: mean survival time, dose: 25.0 mg/kg/injection, schedule: Q01DX009 (ip), vehicle: water) was 1 of 6, the survivor count (T/C endpoint: mean survival time, dose: 50.0 mg/kg/injection, schedule: Q01DX009 (ip), vehicle: saline) was 0 of 6 and the survivor count (T/C endpoint: mean survival time, dose: 50.0 mg/kg/injection, schedule: Q01DX009 (ip), vehicle: water) was 0 of 6. The survivor count (T/C endpoint: mean survival time, dose: 100.0 mg/kg/injection, schedule: Q01DX009 (ip), vehicle: water) was 0 of 6.

`Nc1ccc(SCCCc2c(N)nc(N)nc2N)cc1` was tested, and the survivor count (T/C endpoint: mean survival time, dose: 400.0 mg/kg/injection, schedule: Q01DX001 (ip), vehicle: other) was 1 of 3.

With `Cc1ccnc(N)c1N` the survivor count (T/C endpoint: mean survival time, dose: 50.0 mg/kg/injection, schedule: Q01DX009 (ip), vehicle: other) was 3 of 6, the survivor count (T/C endpoint: mean survival time, dose: 100.0 mg/kg/injection, schedule: Q01DX009 (ip), vehicle: other) was 0 of 6 and the survivor count (T/C endpoint: mean survival time, dose: 200.0 mg/kg/injection, schedule: Q01DX009 (ip), vehicle: other) was 0 of 6.

For `CC(=O)NC1=C(Sc2ccc([N+](=O)[O-])cc2)C(=O)c2ccccc2C1=O`, the survivor count (T/C endpoint: mean survival time, dose: 150.0 mg/kg/injection, schedule: Q01DX001 (ip), vehicle: saline) was 1 of 6 and the survivor count (T/C endpoint: mean survival time, dose: 300.0 mg/kg/injection, schedule: Q01DX001 (ip), vehicle: saline) was 3 of 6.

`O=C(CC(SCCN1CCOCC1)c1ccccc1)c1ccc([N+](=O)[O-])cc1` (stereo not given) was tested, and the survivor count (T/C endpoint: mean survival time, dose: 400.0 mg/kg/injection, schedule: Q01DX001 (ip), vehicle: Klucel (hydroxypropylcellulose) (HPC)) was 0 of 3.

`Cc1c(C)c(C)c(CN2CCC(C)CC2)c(C)c1C` was tested, and the survivor count (T/C endpoint: mean survival time, dose: 100.0 mg/kg/injection, schedule: Q01DX009 (ip), vehicle: saline with Tween-80) was 3 of 3 and 6 of 6.
